Our source for the AC50 values is PubChem BioAssay AID445 (National Center for Advancing Translational Sciences (NCATS), 2006).

A word on the AC50: it is the concentration giving half of the maximal activity seen.

The other results are listed elsewhere or left out. Shown are side measurements of this screen, not its main read-out; they come without a call. Compounds called inactive in the main read-out are mostly missing here. The note in brackets gives the kind of curve behind each potency; many fits are weak.

The assay can be described thus: IkB Signaling. Particulars: ABC-DLBCL IkBa-CBG/CBR dual luciferase ratio (green luciferase fused to IkBa over red control in OCI-Ly3 lymphoma cells), 4 h; measured here: control luc red channel unless noted. The method, boiled down: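 Luminescence ratio of IκBα-fused green versus native red beetle luciferase in OCI-Ly3 cells, 4 h post-doxycycline with compound; red signal alone, scaled from basal (0%) to zero light (-100%), flagged nonspecific or cytotoxic effects.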
In the case of `Cc1cc2cc(CCNS(=O)(=O)c3ccc(Br)cc3)c(=O)[nH]c2cc1C`, the AC50 was 31.6 µM [falling, partial curve].
Turning to `COc1ccccc1C(=O)Nc1ccc2nc(SCC(=O)N3CCCC3)sc2c1`, the AC50 was 20 µM [falling, single point].
Consider `CCCCc1cc(O)c(CCCC)c(O)c1`, for which the concentration at half-maximal activity (AC50) is 39.8 µM [falling, single point].
The figure for `Cc1ccc(NC(=O)/C(C#N)=C\c2ccc(-c3ccc(Cl)cc3)o2)c(C)c1` is 5.01 µM [rising, single point]; for `CCCCCn1c(=O)[nH]c2cc(C(=O)N3CCN(c4cccc(Cl)c4)CC3)ccc2c1=O` it is 5.01 µM [falling, single point]; for `CN(c1ccccc1)S(=O)(=O)c1nnc(NC(=O)c2ccco2)s1` it is 0.01 µM [rising, full curve].
On to `Cc1ccc(OCC(=O)Nc2cccc(O)c2)cc1C`, for which the AC50 was 7.94 µM [falling, partial curve].
For `Cc1ccc2nc(N(Cc3cccnc3)C(=O)c3ccco3)sc2c1`, the AC50 is 20 µM [falling, single point].
As to `Cc1cccc(N2CCN(C(=O)c3cn(C)c4ccc(S(=O)(=O)N(C)C)cc4c3=O)CC2C)c1` (stereo unspecified), the half-maximal activity concentration (AC50) is 3.16 µM [falling, single point].
The figure for `CCc1nnc(SCC(=O)Nc2ccc(Cl)cc2F)c2cc3occc3n12` is 5.01 µM [falling, full curve, poor fit].
With `CCOC(=O)Cn1c(=O)n(-c2ccccc2OC)c2nc(-c3ccccc3)nc(C(N)=O)c21`, the concentration at half-maximal activity (AC50) was 12.6 µM [falling, partial curve].
In the case of `CCc1ccc(-n2c(SCc3nc(-c4cc(OC)ccc4OC)no3)nnc2-c2ccccc2)cc1`, the concentration at half-maximal activity (AC50) was 12.6 µM [falling, partial curve].
For the compound `Cc1cc(Br)cc(C)c1NC(=O)c1cnc2ccccn2c1=O`, the AC50 was 2 µM [rising, partial curve].
For the compound `CCn1c(N2CCN(S(=O)(=O)c3ccccc3C(F)(F)F)CC2)nc2ccccc21`, the AC50 was 31.6 µM [falling, single point].
In the case of `COc1cccc(NS(=O)(=O)c2ccc3[nH]c4c(c3c2)CCCCCC4)c1`, the half-maximal activity concentration (AC50) was 39.8 µM [falling, single point].
Take `COc1ccc(-c2onc(C)c2C)cc1S(=O)(=O)N1CCc2ccccc21`: the half-maximal activity concentration (AC50) was 39.8 µM [falling, single point].
Next, `CCOC(=O)c1ccc(NC(=O)CC2Nc3cccc4cccc(c34)NC2=O)cc1` (stereo unspecified): 25.1 µM [falling, single point]; `Cc1noc(C)c1S(=O)(=O)Nc1ccc(C(=O)Nc2ccc(C(C)C)cc2)cc1`: 25.1 µM [falling, single point].
For the compound `COc1c(C)cccc1C(=O)Nc1ccc(Cl)c(-c2nc3cc(C)ccc3o2)c1`, the half-maximal activity concentration (AC50) is 1.58 µM [rising, partial curve].
With `COc1ccc(-c2nc3sc(CCNC(=O)Cc4ccc(Cl)cc4)c(C)n3n2)cc1`, the AC50 was 20 µM [falling, single point].
`CCOc1ccc(C2C(=O)N(C3CCCCCC3)CC(=O)N2Cc2ccc(F)cc2)cc1OC` (stereo unspecified): the concentration at half-maximal activity (AC50) is 2 µM [rising, partial curve].
Consider `C/C=C/Cn1c(SCc2ccc(Cl)cc2)nc2c1c(=O)[nH]c(=O)n2C`, for which the AC50 is 25.1 µM [falling, partial curve].
On to `COc1ccccc1CNc1nc2nc3c(c(=O)n2[nH]1)CCC3`, for which the AC50 is 7.94 µM [falling, partial curve].
Next, `CC(C)c1ccc(NC(=O)c2ccc3oc(=O)c(S(=O)(=O)c4ccc(F)cc4)cc3c2)cc1`: 25.1 µM [falling, partial curve, poor fit].
Regarding `CC(C)c1ccc(NC(=O)CSc2ncnc3c2sc2ccccc23)cc1`, the AC50 was 12.6 µM [falling, partial curve].
The figure for `CCN1CCN(c2ncc(C(=O)Nc3cc(Cl)ccc3OC)c3ccccc23)CC1` is 10 µM [falling, partial curve]; for `O=C(Nc1ccc(-c2nc3ccccc3o2)c(O)c1)c1cc(Cl)ccc1Cl` it is 39.8 µM [falling, single point].
Take `CCCCc1ccc(Nc2cc(C)nc(-n3nc(C)cc3C)n2)cc1`: the half-maximal activity concentration (AC50) was 20 µM [falling, partial curve].
With `O=C(NCC(c1cccnc1)N1CCc2ccccc2C1)C(=O)Nc1ccccc1F` (stereo unspecified), the AC50 was 5.01 µM [falling, partial curve].
`O=C(CSc1nnc(CNC(=O)c2ccccc2F)o1)c1ccc(Cl)cc1`: the AC50 was 10 µM [falling, partial curve].
Next, `CCN1CCc2c(sc(NC(=O)c3ccc(S(=O)(=O)N(C)C4CCCCC4)cc3)c2C(N)=O)C1`: 12.6 µM [falling, partial curve]; `CC1Cc2cc(S(=O)(=O)CCC(=O)Nc3ccc(F)cc3)ccc2N1C(=O)C1CC1` (stereo unspecified): 25.1 µM [falling, single point].
Take `Cc1ccc(OCc2ccc(C(=O)N3CCOCC3)cc2)cc1C`: the AC50 was 25.1 µM [falling, partial curve].
The figure for `COc1ccc(NC(=O)COc2nsnc2N2CCCCC2)cc1` is 15.8 µM [falling, partial curve]; for `COc1ccc(-c2noc(-c3cccc(Cl)c3)n2)cc1OC` it is 0.398 µM [rising, full curve, poor fit].
Turning to `CN(C(=O)c1c[nH]c2ccc(S(=O)(=O)Nc3cccc(C(F)(F)F)c3)cc2c1=O)C1CCCCC1`, the half-maximal activity concentration (AC50) was 15.8 µM [falling, partial curve].
The figure for `COc1cccc2sc(NC(=O)c3ccc(S(=O)(=O)N4CCOCC4)cc3)nc12` is 15.8 µM [falling, partial curve].
In the case of `CN(C)S(=O)(=O)c1ccc(C(=O)NCCSc2c(-c3ccc(Br)cc3)[nH]c3ccccc23)cc1`, the concentration at half-maximal activity (AC50) is 7.94 µM [falling, full curve].
Take `O=C(CCN1CCN(CCC(=O)c2ccccc2)CC1)c1ccccc1`: the AC50 is 25.1 µM [falling, partial curve].
Next, `O=C(NCCc1ccc(Cl)cc1)c1nnc(Cc2ccc(F)cc2)o1`: 0.398 µM [rising, single point].
On to `Cc1ccc(NC(=O)C2CCCN(c3ncnc4onc(C)c34)C2)c(Cl)c1` (stereo unspecified), for which the AC50 is 20 µM [falling, partial curve].
